{"source": "PubChem BioAssay AID504834", "about": "(National Center for Advancing Translational Sciences (NCATS), 2011)", "note": "About 22,000 (6.9%) of roughly 320,000 compounds were called active. The inconclusive results got no clear call from the source; some entries with a clear call stand among them for comparison. Calls follow the shape of the dose curve; as a rule, active = well fitted inhibition curve with a large enough effect; inconclusive = small, poorly fitted or top-dose-only effect, or another doubt; inactive = no such curve, though single readings can be large or run the other way. Potencies beside an inconclusive call are fits to weak or partial responses and may not hold up. % is scaled to controls: 0 for no effect and ±100 for the full control effect; potency is read from the fitted curve at half-maximal effect.", "data": [{"experiment": "Primary qHTS for delayed death inhibitors of the malarial parasite plastid, 96 hour incubation", "conditions": "P. falciparum luciferase reporter growth; series mostly up to 28.7 µM; activity change, negative = inhibition: at the top concentration", "outline": "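Two-generation exposure (96 h) targets delayed-death phenotype. Reporter parasites carrying integrated firefly luciferase, in red cells at 2% hematocrit and 0.05% parasitemia final, kept at 37 C, 5% CO2; luminescence loss indicates inhibition.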", "values": [{"smiles": "C/C(=N\\NC(=S)NC1CCCCC1)c1ccc(OC(F)F)cc1OC(F)F", "Potency": "inconclusive: 4.65 µM [inhibitor, partial curve, poor fit]"}, {"smiles": "CC1CN(S(=O)(=O)c2cccc(C(F)(F)F)c2)CN1C(=O)N1CCOCC1", "note": "(stereo not given)", "activity change, negative = inhibition": "inactive: -13%"}, {"smiles": "CCOc1cc(NC(=S)NCC2CCCO2)c(OCC)cc1NC(=O)c1ccc(C)cc1", "note": "(stereo not given)", "Potency": "inconclusive: 11.7 µM [inhibitor, single point]"}, {"smiles": "CCCOc1ccc(C(=O)Nc2ccc(S(=O)(=O)N3CCN(C)CC3)cc2)cc1", "Potency": "inconclusive: 18.5 µM [inhibitor, single point]"}, {"smiles": "COC(=O)Nc1ccc(S(=O)(=O)Nc2cc(OC)nc(OC)n2)cc1", "Potency": "inconclusive: 18.5 µM [inhibitor, single point]"}, {"smiles": "CCC(C)c1ccc(S(=O)(=O)N2CCN(C(C)C(=O)NC3CCCC3)CC2)cc1", "note": "(stereo not given)", "Potency": "inconclusive: 18.5 µM [inhibitor, single point]"}, {"smiles": "Cc1cc(C(=O)NCC(=O)OCC(=O)N2CCCCCC2)ccc1[N+](=O)[O-]", "Potency": "inconclusive: 18.5 µM [inhibitor, single point]"}, {"smiles": "COC(=O)c1cc(NC(=O)c2ccc(F)cc2)cc(C(=O)OC)c1", "activity change, negative = inhibition": "inactive: 0.313%"}, {"smiles": "COc1ccc(CCNS(=O)(=O)c2cn(C)cn2)cc1OC", "Potency": "inconclusive: 18.5 µM [inhibitor, single point]"}, {"smiles": "Cc1cc2ncn(C(=O)N3CCCCC3)c2cc1C", "Potency": "active: 13.1 µM"}, {"smiles": "COc1ccc(CN(CCC(c2ccco2)C(C)C)C(C)=O)cc1OC", "note": "(stereo not given)", "Potency": "inconclusive: 11.7 µM [inhibitor, partial curve, poor fit]"}, {"smiles": "CCOCCn1c(CN2CCN(c3ccc(F)cc3)CC2)nc2c1c(=O)n(C)c(=O)n2C", "Potency": "active: 7.38 µM"}, {"smiles": "COC(=O)Cc1ccc(NC(=O)c2ccc(C(C)(C)C)cc2)cc1", "Potency": "inconclusive: 9.28 µM [inhibitor, partial curve, poor fit]"}, {"smiles": "COC(=O)C1=CN(Cc2ccc(F)cc2)C=C(C(=O)OC)C1c1cc(OC)c(OC)c(OC)c1", "activity change, negative = inhibition": "inactive: -27.5%"}, {"smiles": "COc1ccc(S(=O)(=O)N2CCN(C)CC2)cc1C", "Potency": "inconclusive: 7.38 µM [inhibitor, partial curve]"}, {"smiles": "O=C1NC(=O)N(c2ccccc2)C(=O)/C1=C\\c1ccc([N+](=O)[O-])o1", "Potency": "inconclusive: 4.15 µM [inhibitor, single point]"}, {"smiles": "O=C(CSc1ccc2nnc(-c3ccccn3)n2n1)Nc1ccc(F)cc1F", "Potency": "inconclusive: 14.7 µM [inhibitor, single point]"}, {"smiles": "Cc1ccc(-n2ncc3c2CCCC3NC(=O)CCN2CCCC2=O)cc1C", "note": "(stereo not given)", "Potency": "inconclusive: 13.1 µM [inhibitor, single point]"}, {"smiles": "Cc1cnc(C(=O)Nc2ccc(N3CCOCC3)cc2)cn1", "activity change, negative = inhibition": "inactive: 15.3%"}, {"smiles": "Cc1ccc([C@@H]2C3COCC=C3C(C#N)=C(N)C2(C#N)C#N)o1", "note": "(stereo not given in full)", "Potency": "inconclusive: 10.4 µM [inhibitor, single point]"}, {"smiles": "Nc1nc2nonc2nc1N1CCCCC1", "Potency": "inconclusive: 0.0083 µM [inhibitor, full curve, poor fit]"}, {"smiles": "CN(Cc1ccccc1)C(=S)Nc1cccnc1", "activity change, negative = inhibition": "inactive: -4.94%"}, {"smiles": "O=Cc1ccc(-c2cccc(C(=O)O)c2)o1", "Potency": "inconclusive: 11.7 µM [inhibitor, partial curve]"}, {"smiles": "COc1ccc(C2=CC(=O)C[C@H](c3ccc(OC)c(OC)c3)C2)cc1", "Potency": "inconclusive: 6.57 µM [inhibitor, single point]"}, {"smiles": "CCC(C)NC(=O)CS(=O)(=O)Cc1nc(-c2cccc(OC)c2)oc1C", "note": "(stereo not given)", "Potency": "inconclusive: 14.7 µM [inhibitor, partial curve, poor fit]"}, {"smiles": "Cc1ccc(S(=O)(=O)N2CCN(c3ccnc4cc(Cl)ccc34)CC2)cc1C", "activity change, negative = inhibition": "inactive: 8.06%"}, {"smiles": "CCOCCCN(C(=O)c1snc(C(N)=O)c1N)C(C(=O)NC1CCCC1)c1ccc(O)c(OC)c1", "note": "(stereo not given)", "activity change, negative = inhibition": "inactive: -4.54%"}, {"smiles": "CCc1nnc(NC(=O)CSc2nnc3c4ccccc4n(C)c3n2)s1", "Potency": "inconclusive: 18.5 µM [inhibitor, single point]"}, {"smiles": "CC(=O)c1ccc(N2CCN(CC(=O)Nc3ccccc3C(=O)NC3CC3)CC2)c(F)c1", "Potency": "inconclusive: 10.4 µM [inhibitor, single point]"}, {"smiles": "COc1ccc(-c2csc(NC(=O)c3c(OC)cccc3OC)n2)cc1", "Potency": "inconclusive: 10.4 µM [inhibitor, single point]"}, {"smiles": "O=C(Nc1ccc2nsnc2c1)C1CC1", "activity change, negative = inhibition": "inactive: 22.1%"}, {"smiles": "O=[N+]([O-])c1ccc(O)c(CSc2nnnn2-c2ccccc2)c1", "Potency": "inconclusive: 0.928 µM [inhibitor, single point]"}, {"smiles": "Cc1ccc2[nH]c3c(NCc4ccco4)ncnc3c2c1", "Potency": "inconclusive: 18.5 µM [inhibitor, single point]"}, {"smiles": "Brc1ccc(-c2csc(N3CCOCC3)n2)cc1", "Potency": "inconclusive: 18.5 µM [inhibitor, single point]"}, {"smiles": "C[N+](C)(C)Cc1ccccc1", "Potency": "active: 1.04 µM"}, {"smiles": "CCOC(=O)N1CCN(C(=O)CSc2ccc(C(=O)OC)cc2[N+](=O)[O-])CC1", "Potency": "active: 4.65 µM"}, {"smiles": "O=C(C1CCCN(c2nnc(-n3cccc3)s2)C1)N1CCC2(CC1)OCCO2", "note": "(stereo not given)", "activity change, negative = inhibition": "inactive: -25.9%"}, {"smiles": "CC(Oc1ccc(F)cc1)C(=O)Nc1cc(S(=O)(=O)N2CCOCC2)ccc1N1CCCC1", "note": "(stereo not given)", "Potency": "inconclusive: 10.4 µM [inhibitor, partial curve, poor fit]"}, {"smiles": "CC(=O)NNc1nc(-c2ccccc2)cs1", "activity change, negative = inhibition": "inactive: 0%"}, {"smiles": "Cc1cccc(C)c1Nc1c(-c2ccccc2O)nc2ncccn12", "Potency": "inconclusive: 2.08 µM [inhibitor, full curve]"}, {"smiles": "CCN1CCN(/C=N/c2nc(C)cs2)CC1", "activity change, negative = inhibition": "inactive: -13.4%"}, {"smiles": "CN(C(=O)COC(=O)C1(C)CC1(Cl)Cl)c1c(N)n(Cc2ccccc2)c(=O)[nH]c1=O", "note": "(stereo not given)", "activity change, negative = inhibition": "inactive: -0.073%"}, {"smiles": "CCN(CC)CCn1c(NCc2cc(OC)ccc2OC)nc2ccccc21", "Potency": "inconclusive: 16.5 µM [inhibitor, single point]"}, {"smiles": "CC12CCC(C/C1=N\\OC(=O)c1c(F)cccc1F)C2(C)C", "note": "(stereo not given)", "Potency": "inconclusive: 1.47 µM [inhibitor, full curve, poor fit]"}, {"smiles": "COc1cc(OC)c(NC(=S)NCc2ccccc2)cc1Cl", "Potency": "inconclusive: 18.5 µM [inhibitor, single point]"}, {"smiles": "O=C(/C=C/c1ccccc1)Nc1nc(-c2ccncc2)cs1", "Potency": "inconclusive: 18.5 µM [inhibitor, single point]"}, {"smiles": "COc1ccc(NC(=O)c2ccc(S(=O)(=O)N3CCOCC3)cc2)c(OC)c1", "Potency": "active: 4.65 µM"}, {"smiles": "CCOC(=O)Cc1csc(NC(=S)NC(=O)c2ccccc2C)n1", "Potency": "inconclusive: 4.15 µM [inhibitor, partial curve]"}, {"smiles": "Cc1ccccc1CN(c1ccc(C(=O)N2CCc3ccccc3C2)cc1)S(C)(=O)=O", "Potency": "inconclusive: 2.94 µM [inhibitor, single point]"}, {"smiles": "CCOc1ccc(C(=S)N2CCCC2)cc1OCC", "Potency": "inconclusive: 18.5 µM [inhibitor, single point]"}, {"smiles": "COc1cc(OC)cc(OCC(O)Cn2cnc3cc(C)c(C)cc32)c1", "note": "(stereo not given)", "Potency": "active: 10.4 µM"}, {"smiles": "OC(CN1CCN(C(c2ccccc2)c2ccccc2)CC1)c1ccc(Br)cc1", "note": "(stereo not given)", "Potency": "active: 1.31 µM"}, {"smiles": "CCOc1cc(C(=O)Nc2ccc(F)cc2)cc(Br)c1OC", "Potency": "inconclusive: 2.33 µM [inhibitor, partial curve, poor fit]"}, {"smiles": "CCOC(=O)c1ccc(S(=O)(=O)N2CCN(C(=O)c3cc(=O)c4ccccc4o3)CC2)cc1", "Potency": "inconclusive: 2.33 µM [inhibitor, partial curve, poor fit]"}, {"smiles": "COc1cccc(CN(C)C(=O)COc2ccc(C(=O)c3ccc(Cl)cc3)cc2)c1OC", "Potency": "inconclusive: 9.28 µM [inhibitor, single point]"}, {"smiles": "CCCCCCSc1nc(O)c(C2OC(=O)c3c2ccc(OC)c3OC)c(=O)n1CC", "note": "(stereo not given)", "Potency": "inconclusive: 18.5 µM [inhibitor, single point]"}, {"smiles": "CC(=O)c1sc(NC(=O)c2c(F)cccc2F)nc1-c1ccccc1", "activity change, negative = inhibition": "inactive: 17.2%"}, {"smiles": "Cc1ccccc1NS(=O)(=O)c1ccc2oc(=O)ccc2c1", "Potency": "inconclusive: 4.15 µM [inhibitor, single point]"}, {"smiles": "Cc1cc(C(=O)OCC(=O)Nc2cc(S(=O)(=O)N(C)C)ccc2Cl)c2ccccc2n1", "activity change, negative = inhibition": "inactive: 15%"}, {"smiles": "COc1cccc(OCc2nn3c(=O)c(-c4ccccc4)nnc3s2)c1", "Potency": "inconclusive: 4.65 µM [inhibitor, partial curve]"}, {"smiles": "Cc1cccn2c(=O)c3cc(C(=O)NCC4CCCO4)c(=N)n(C4CCCCC4)c3nc12", "note": "(stereo not given)", "Potency": "active: 1.31 µM"}, {"smiles": "COc1ccc(CCN2C(=O)N[C@@H](C(C)C)C2=O)cc1", "activity change, negative = inhibition": "inactive: 20.8%"}, {"smiles": "CCCCCCCC(=O)Nc1ccc(C(=O)N/N=C/c2cccc([N+](=O)[O-])c2)cc1", "Potency": "inconclusive: 4.15 µM [inhibitor, partial curve, poor fit]"}, {"smiles": "CCOC(=O)c1ccc(NC(=O)CCC(=O)NCc2ccco2)cc1", "Potency": "inconclusive: 9.28 µM [inhibitor, partial curve, poor fit]"}, {"smiles": "O=C(CN1C2=NCCCN2c2ccccc21)c1ccc2c(c1)OCO2", "Potency": "inconclusive: 13.1 µM [inhibitor, single point]"}, {"smiles": "C/C(=N\\NC(=O)c1cccc(Br)c1)c1ccccn1", "activity change, negative = inhibition": "inactive: -6.48%"}, {"smiles": "O=C(N[C@@H](Cc1ccccc1)C(=O)OCc1ccccc1)c1nc[nH]c1C(=O)NC1CCNCC1", "Potency": "inconclusive: 18.5 µM [inhibitor, single point]"}, {"smiles": "COC(=O)COc1ccc2c(-c3cccc([N+](=O)[O-])c3)cc(=O)oc2c1", "Potency": "inconclusive: 18.5 µM [inhibitor, single point]"}, {"smiles": "O=C(Nc1cc(Cl)cc(Cl)c1)C1CCCC1", "activity change, negative = inhibition": "inactive: -61.2%"}, {"smiles": "O=C(COc1ccccc1C(=O)Nc1ccccc1)c1ccc(F)cc1", "Potency": "inconclusive: 2.62 µM [inhibitor, single point]"}]}]}
